Experimental data reported in US20170247437A1 (ONCOMED PHARMACEUTICALS, published 2017).
Results are given in words; binding and its absence hold for the method and conditions named. Some binding calls cover weakened binding; strength is not graded here.

Sequences of proteins named here, by UniProt entry; tags and fusion partners are left off. A change or cut given only in a name is not applied to a line headed by its entry.
UniProt Q2MKA7: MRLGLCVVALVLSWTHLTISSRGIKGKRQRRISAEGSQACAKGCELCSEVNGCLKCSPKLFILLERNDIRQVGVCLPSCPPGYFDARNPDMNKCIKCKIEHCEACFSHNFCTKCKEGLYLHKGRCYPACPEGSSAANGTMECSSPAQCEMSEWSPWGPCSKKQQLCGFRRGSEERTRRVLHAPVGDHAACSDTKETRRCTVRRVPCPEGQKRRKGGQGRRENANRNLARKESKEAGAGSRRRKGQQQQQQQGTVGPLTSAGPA

What was measured:
[1] = target: FLAG-RSPO1furin-CD4TM-GFP (human) (UniProt Q2MKA7); assay: FACS, serial antibody dilutions on HEK-293 cells transfected with FLAG-RSPO1furin-CD4TM-GFP, APC anti-IgG detection
[2] = target: T1, recombinant human RSPO1 (R&D Systems) (human, UniProt Q2MKA7 21-263); assay: ELISA on plate-coated recombinant human RSPO1; h89M5-H2L2 as reference standard and positive control
T1 construct: Bought protein

B1: second generation humanized anti-RSPO1 antibody h89M5-H8L5 (antibody, human IgG1, kappa, V domains shown)
VH: EVQLVQSGAEVKKPGESLRISCKGSGYSFTGYTMHWVRQMPGKGLEWMGGINPNNGGTTYNQNFKGHVTISADKSISTAYLQWSSLKASDTAMYYCARKEFSDGYYFFAYWGQGTLVTVSS
VL: DIVMTQSPDSLAVSLGERATINCKASQDVIFAVAWYQQKPGQPPKLLIYWASTRHTGVPDRFSGSGSGTDFTLTISSLQAEDVAVYYCQQHYSTPWTFGGGTKVEIKR
notes: Humanized version of mouse antibody 89M5, with the same CDRs as h89M5-H2L2; also called h89R5-H8L5
B1 was tested, and the binding [1] was “binds”.

B2: first generation humanized anti-RSPO1 antibody h89M5-H2L2 (antibody, human IgG2, kappa, V domains shown)
VH: QVQLVQSGAEVKKPGASVKVSCKTSGYTFTGYTMHWVRQAPGQRLEWMGGINPNNGGTTYNQNFKGRVTITRDTSASTAYMELSSLRSEDTAVYYCARKEFSDGYYFFAYWGQGTLVTVSS
VL: DIQMTQSPSSLSASVGDRVTITCKASQDVIFAVAWYQQKPGKAPKLLIYWASTRHTGVPSRFSGSGSGTDYTLTISSLQPEDFATYYCQQHYSTPWTFGGGTKVEIKR
In the case of B2, the binding [2] is reported as “binds” and the binding [1] is reported as “binds”.
